Cell death data for twelve compounds are collected here from the supplement of paper PMC12872613.

This is one part of the list. Rule as the data show it: active = 0.7 or more and inactive = the rest. Repeats are few or missing, and single values can be far off.

This assay has as its system MiaPaCa-2 CLSA-25. Briefly: cell death relative to DMSO vehicle (fraction); higher = more cytotoxic. The settings on record: 5 µM; treatment time 48 h; medium cystine 25 µM.
Regarding `CCCCNC(=O)NS(=O)(=O)c1ccc(C)cc1` [Tolbutamide], the cell death was inactive: 0.209.
In the case of `CN(CC(=O)O)C(=N)N` [Creatine] it was inactive: 0.164.
To `O=C(NCCN1CCOCC1)Nc1ccc(C(=O)/C=C/c2cccc(N3CCOCC3)n2)cc1` belongs inactive: 0.63; to `C[C@@]12C[C@@]3(O)O[C@@H](O1)[C@]1(COC(=O)c4ccccc4)[C@H]3C[C@@]12O[C@@H]1O[C@H](CO)[C@@H](O)[C@H](O)[C@H]1O` [Paeoniflorin], inactive: 0.133.
To `O=C(O)c1c[nH]c2cc(Cl)c(-c3ccc(C4(O)CCC4)cc3)cc12` belongs inactive: 0.054; to `CC(C)(C(=O)c1cccnc1)c1cccnc1` [Metyrapone], inactive: 0.147.
As to `O=C1c2ccccc2C(=O)C1c1ccccc1` [Phenylindione], the cell death was inactive: 0.00508.
`CCc1cccc2c3c([nH]c12)C(CC)(CC(=O)O)OCC3` (configuration not stated) [Etodolac]: the cell death is inactive: 0.621.
`C[C@@H]1C[C@H]2[C@@H]3CCC4=CC(=O)C=C[C@]4(C)[C@@]3(Cl)[C@@H](O)C[C@]2(C)[C@@]1(OC(=O)c1ccco1)C(=O)CCl` [Mometasone furoate]: the cell death is inactive: 0.528.
As to `O=c1c(O)c(-c2ccc(O)cc2)oc2cc(O)cc(O)c12` [Kaempferol], the cell death was inactive: 0.147.
For `Cc1cc2nc3c(=O)[nH]c(=O)nc-3n(C[C@H](O)[C@H](O)[C@H](O)COP(=O)(O)O)c2cc1C` [Flavin mononucleotide], the cell death was inactive: 0.0138.
To `O=C(Nc1c(Cl)cncc1Cl)c1ccc(OC(F)F)c(OCC2CC2)c1` [Roflumilast] belongs active: 0.844.
